This passage reports binding signal results from article PMC7862700.

The list shows a part of the results. The source does not settle which construct or isoform was used.

The assay has as its target T1, ETS1 (UniProt P14921).
T1 sequence: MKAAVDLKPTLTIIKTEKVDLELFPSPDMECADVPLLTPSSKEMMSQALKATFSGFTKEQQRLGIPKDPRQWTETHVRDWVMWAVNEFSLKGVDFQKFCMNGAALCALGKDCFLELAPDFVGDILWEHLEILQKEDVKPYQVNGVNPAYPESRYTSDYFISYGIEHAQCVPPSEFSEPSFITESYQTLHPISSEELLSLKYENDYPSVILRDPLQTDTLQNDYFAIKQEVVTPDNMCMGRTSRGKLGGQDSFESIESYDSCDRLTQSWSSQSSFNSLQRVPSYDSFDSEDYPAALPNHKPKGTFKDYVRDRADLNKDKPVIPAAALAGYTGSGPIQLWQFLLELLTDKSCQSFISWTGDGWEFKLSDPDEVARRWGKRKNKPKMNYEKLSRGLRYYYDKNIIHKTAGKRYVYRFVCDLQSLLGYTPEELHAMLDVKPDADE
In words: DAPPL (digital affinity profiling via proximity ligation, sequencing). Particulars: 10 mM Tris-HCl pH 7.5, 50 mM NaCl, 1 mM DTT, 4% glycerol, room temperature, 30 min; GST-TFs on glutathione beads, 16-mer random dsDNA library, 0.1% …; high values mean tight binding; double strand, one strand shown; scale: fold enrichment (6-mer frequency, TF over GST control).
On to TTGCTA, for which the binding signal worked out at 1.26.

In turn, TATGGT gave a binding signal of 1.42.

In the case of AAAATC, the binding signal turned out to be 1.27.

In the case of TCATGC, the binding signal is 1.17.

On to GCCTCG, for which the binding signal was found to be 1.37.

Take ACGCCC: the binding signal was 1.06.

CACACT came in with a binding signal of 1.22.

For GTTTTC, the binding signal amounted to 1.24.

For CGATCC, the binding signal was determined as 1.27.

For CTCGTG, the binding signal came to 1.03.

AACGTC gave a binding signal of 1.07.

CGCTCC gave a binding signal of 1.26.

Regarding TCCGGA, the binding signal was determined as 2.36.

Consider TATTCT, for which the binding signal was determined as 1.28.

Consider CTTGTT, for which the binding signal worked out at 1.23.

For the sequence GCTCCA, the binding signal was found to be 1.26.

With CCGTCC, the binding signal was 1.36.

For CCCTTT, the binding signal was 1.4.

Sequence GTATGC gave a binding signal of 1.16.

As for CGATTT, the binding signal turned out to be 1.2.

For TTCTCA, the binding signal came to 1.32.

CGTAAT yielded a binding signal of 1.21.

For TATTTC, the binding signal was 2.04.

Consider TACTTT, for which the binding signal turned out to be 1.45.

With ACATCC, the binding signal stood at 2.52.

Consider GCTATT, for which the binding signal was determined as 1.3.

For the sequence TTGAAT, the binding signal was 1.15.

In the case of GAAGCT, the binding signal worked out at 1.58.

Sequence CAAATT had a binding signal of 1.13.

In turn, CTTATC returned a binding signal of 1.2.

The sequence GCTTAT yielded a binding signal of 1.28.

Turning to TTCCCT, the binding signal amounted to 1.72.

Take CATCTT: the binding signal was found to be 1.13.

With GGCCTA, the binding signal is 1.18.

For the sequence TCTCGG, the binding signal worked out at 1.5.

With CGAAGC, the binding signal was 1.28.

In the case of AAGAAA, the binding signal worked out at 1.27.

AAATCC yielded a binding signal of 1.49.

In turn, GACTCT had a binding signal of 1.43.
